In all, about 360,000 compounds went through this assay and about 10,000 (2.8%) were called active. The shares of active, inactive and inconclusive entries below differ from those in the screen. Calls come from the whole dose curve; as a rule, active = well fitted inhibition curve with a large enough effect; inconclusive = small, poorly fitted or top-dose-only effect; inactive = flat fitted curve, though single readings scatter. Where the call is inconclusive, the potency comes from a doubtful curve fit.
molecular target: Serine/threonine-protein kinase PLK1 (Homo sapiens) (UniProt P53350); experiment: qHTS for Inhibitors of PLK1-PDB (polo-like kinase 1 - polo-box domain): Primary Screen; conditions: Plk1 PBD binding of FITC phosphopeptide, fluorescence polarization; note: nearly all actives have a fitted effect of over 65% in size; for max response, negative = inhibition: series mostly up to about 57 µM
% is set by controls: 0 for no effect and ±100 for the full control effect; potency is the fitted concentration of half-maximal effect.

Protein sequences, listed by entry. Tags and fused reporters are not part of them.
UniProt P53350, whole entry, looked up: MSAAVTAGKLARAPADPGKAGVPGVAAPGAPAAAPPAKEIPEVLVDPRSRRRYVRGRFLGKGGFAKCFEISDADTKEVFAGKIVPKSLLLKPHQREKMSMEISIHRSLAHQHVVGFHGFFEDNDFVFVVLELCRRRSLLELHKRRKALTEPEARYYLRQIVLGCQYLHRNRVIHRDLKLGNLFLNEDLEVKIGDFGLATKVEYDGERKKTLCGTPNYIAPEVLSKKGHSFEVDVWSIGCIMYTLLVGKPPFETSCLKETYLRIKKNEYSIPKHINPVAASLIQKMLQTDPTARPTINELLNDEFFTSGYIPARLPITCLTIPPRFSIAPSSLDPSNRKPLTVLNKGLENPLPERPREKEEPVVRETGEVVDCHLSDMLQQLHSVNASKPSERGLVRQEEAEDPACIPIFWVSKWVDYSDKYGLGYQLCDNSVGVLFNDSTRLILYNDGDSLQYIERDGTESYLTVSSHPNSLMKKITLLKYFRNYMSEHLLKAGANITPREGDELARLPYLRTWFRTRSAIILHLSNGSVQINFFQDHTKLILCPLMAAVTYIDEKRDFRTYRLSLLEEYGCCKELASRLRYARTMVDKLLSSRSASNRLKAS

SMILES	Potency	max response, negative = inhibition
Cc1ccnc(NC(c2ccccn2)c2c(C)[nH]c3ccccc23)c1 (stereo not given)	active: 11.9 µM	
O=C(O)c1ccc(COc2ccc(/C=N/NC(=O)c3cccs3)cc2)cc1	inconclusive: 37.7 µM [inhibitor, single point]	
COc1ccc(Cc2nnc(NC(=O)c3cccc(C)c3)s2)cc1	inconclusive: 37.7 µM [inhibitor, single point]	
O=C(O)/C(=C/c1ccc(Cl)c([N+](=O)[O-])c1)c1ccc(S(=O)(=O)N2CCCCC2)s1	inconclusive: 23.8 µM [inhibitor, single point]	
O=C1OC(c2ccccc2)=N/C1=C\C=C\c1ccccc1[N+](=O)[O-]	inconclusive: 16.8 µM [inhibitor, single point]	
Cc1ccc(C(=O)Nc2cccc([N+](=O)[O-])c2)cc1S(=O)(=O)Nc1cccc(C(=O)O)c1	active: 15 µM	
CCOC(=O)c1c(NC(=S)NNS(=O)(=O)c2ccc(Br)cc2)sc2c1CCCCC2	active: 26.7 µM	
COc1cc2c(cc1NC(=O)COC(=O)C1CC(=O)N(Cc3ccco3)C1)oc1ccccc12 (stereo not given)		inactive: -1.45%
CC1C(=O)N(Cc2cn(CCC3OCCO3)nn2)CCS(=O)(=O)N1Cc1ccc(-c2ccc(Cl)cc2)cc1 (stereo not given)		inactive: -2.99%
O=c1cc(-c2ccsc2)oc2ccc(-c3ccc4cc[nH]c4c3)cc12	inconclusive: 29.9 µM [inhibitor, single point]	
OCCN(CCO)c1nc(N2CCCCC2)c2nc(N(CCO)CCO)nc(N3CCCCC3)c2n1	active: 11.9 µM	
Cc1cc(O)c(C=O)c2c1C(=O)Oc1c(CO)c(O)c3c(c1O2)C(O)OC3=O (stereo not given)	active: 7.52 µM	
CCOC(=O)C1Nc2ccc(Br)cc2C2C=CCC12 (stereo not given)	inconclusive: 37.7 µM [inhibitor, single point]	
Nn1c(Cc2cccc3ccccc23)nnc1SC1CCOC1=O (stereo not given)		inactive: -14.4%
Cc1cccc(NC(=S)NNC(=O)CCn2nc(C)c([N+](=O)[O-])c2C)c1	inconclusive: 11.9 µM [inhibitor, partial curve]	
CC1CCCCN1C(=S)NC(=O)c1ccco1 (stereo not given)	inconclusive: 29.9 µM [inhibitor, single point]	
CC(C)NC(=O)NC(=O)CSc1ncc(C(F)(F)F)cc1Cl	inconclusive: 12.6 µM [inhibitor, partial curve]	
O=c1[nH]c(=S)c2[nH]c(=S)n(-c3ccccc3)c2[nH]1	inconclusive: 33.6 µM [inhibitor, partial curve]	
COc1ccccc1NC(=O)C1=C(C)NC(SCC(=O)c2ccccc2)=C(C#N)C1c1ccco1 (stereo not given)	inconclusive: 26.7 µM [inhibitor, single point]	
O=C(NC1CC1)c1ccc2c(c1)C1C3CCC(C3)C1C(c1ccccc1)N2 (stereo not given)	inconclusive: 4.74 µM [inhibitor, single point]	
COc1cccc(C(C)(O)c2nc(-c3cccc(C(C)C)c3)cs2)c1 (stereo not given)		inactive: -0.293%
CC(C)c1ccccc1N=C1SCCN1C1CCS(=O)(=O)C1 (stereo not given)	inconclusive: 29.9 µM [inhibitor, single point]	
Cn1c(=O)c2nc(NCc3ccccc3)cnc2n(C)c1=O		inactive: -8.65%
CCCCCCCCCCCC(=O)NC(C(=O)O)C(O)c1ccccc1 (stereo not given)	inconclusive: 23.8 µM [inhibitor, partial curve]	

SMILES	Potency	max response, negative = inhibition
O=C(O)CCN1C(=O)/C(=C/c2cn(-c3ccccc3)nc2-c2cccs2)SC1=S	active: 29.9 µM	
O=c1oc2ccccc2c(NC2CCCCC2)c1NS(=O)(=O)c1ccc(F)cc1	active: 3.36 µM	
C/C(CCC(C)C)=N\NS(=O)(=O)c1ccc(C)c([N+](=O)[O-])c1	inconclusive: 29.9 µM [inhibitor, partial curve]	
Cc1ccc(OCc2cc(C(=O)N(C)Cc3cnc4ccccn34)no2)cc1C	active: 21.2 µM	
O=C(N/N=C/c1ccc([N+](=O)[O-])o1)c1cc2c(ccc3ccccc32)o1	active: 15 µM	
CCOC(=O)C1=NNC(C(=O)c2ccc(C)cc2)C1c1ccc(OC)cc1 (stereo not given)		inactive: -4.26%
CCOC(=O)c1csc(-n2nc(C)cc2C(F)(F)F)n1	inconclusive: 26.7 µM [inhibitor, single point]	
COCCn1c(C)cc(C(=O)COC(=O)c2cc3c(s2)CCC3)c1C	inconclusive: 29.9 µM [inhibitor, single point]	
Cc1csc(NC(=O)CSc2sc3c(O)cc(=O)[nH]c3c2C#N)n1	inconclusive: 16.8 µM [inhibitor, partial curve]	
O=c1[nH]c(-c2ccc(F)cc2)nc2c1sc(=S)n2-c1ccccc1	inconclusive: 29.9 µM [inhibitor, partial curve]	
Cc1cccc2c1N(CCCOc1ccccc1)C(=O)C2=O	inconclusive: 37.7 µM [inhibitor, single point]	
CN1CCC(N(C)C(=O)CNC(=O)c2ccc(C(C)(C)C)cc2)CC1	inconclusive: 26.7 µM [inhibitor, partial curve]	
O=S(=O)(c1ccccc1)c1nc(-c2ccco2)oc1N1CCCCCC1	active: 7.52 µM	
COc1cccc(C(=O)N(Cc2ccco2)Cc2cc3cccc(C)c3[nH]c2=O)c1		inactive: -1.73%
Nc1nncn1C(=O)CCc1ccccc1		inactive: -11.2%
Cc1ccc(C)c(C(=O)OCC(=O)Nc2ccc(N3CCOCC3)cc2)c1		inactive: -27.8%
S=c1sscc1-c1ccccc1	inconclusive: 33.6 µM [inhibitor, partial curve]	
COc1cccc(/C=C2\SC(N3CCC(C)CC3)=NC2=O)c1OC	inconclusive: 16.8 µM [inhibitor, partial curve]	
CCC(C)N(C(=O)c1csnn1)C(C(=O)NC(C)(C)C)c1ccccc1 (stereo not given)	inconclusive: 26.7 µM [inhibitor, single point]	
COc1ccc(-n2c(=O)[nH]cc(C(=O)Nc3ccc4c(c3)OCO4)c2=O)cc1OC		inactive: 2.27%
CCN(Cc1ccncc1)C(=O)C1CCN(S(=O)(=O)c2cccs2)CC1	inconclusive: 26.7 µM [inhibitor, partial curve]	
CCC1CN(C(=O)NCc2ccc(C)cc2)c2cc(C)ccc2O1 (stereo not given)		inactive: 3.68%
Cc1ccc(NC(=O)CNC(=O)Cn2cnc3sc(C)c(C)c3c2=O)cc1F	inconclusive: 26.7 µM [inhibitor, partial curve]	
Cc1ccc(N2CC(C(=O)Nc3nnc(SCc4cccnc4)s3)CC2=O)cc1 (stereo not given)		inactive: -12.9%

Taken from above.
Potency with O=c1[nH]c(-c2ccc(F)cc2)nc2c1sc(=S)n2-c1ccccc1 reads inconclusive: 29.9 µM [inhibitor, partial curve]
Potency with S=c1sscc1-c1ccccc1 reads inconclusive: 33.6 µM [inhibitor, partial curve]
Potency with CCOC(=O)c1csc(-n2nc(C)cc2C(F)(F)F)n1 reads inconclusive: 26.7 µM [inhibitor, single point]

(more compounds)

SMILES	Potency	max response, negative = inhibition
Cc1sc2nc[nH]c(=S)c2c1-c1ccccc1	inconclusive: 26.7 µM [inhibitor, partial curve]	
CC(=O)N(Cc1ccc(F)cc1)C1=C(NCc2ccccc2)C(=O)c2ccccc2C1=O		inactive: -8.35%
FC(F)(F)c1ccc2nnc(-c3c(Cl)cccc3Cl)n2c1	inconclusive: 23.8 µM [inhibitor, partial curve]	
O=C1c2cccc3c([N+](=O)[O-])ccc(c23)C(=O)N1Cc1cccnc1	inconclusive: 26.7 µM [inhibitor, partial curve]	
Cc1ccccc1OC(=O)n1c(=S)oc2cc(Cl)ccc21	active: 13.4 µM	
C#CCOCCOCCOCCNc1nc(N2CCN(C(=O)[C@H](Cc3ccc(O)cc3)n3cc([C@@H](N)C(C)CC)nn3)CC2)nc(N2CCN(C(=O)[C@H](CCCCN)n3cc([C@@H](N)CO)nn3)CC2)n1 (stereo not given in full)		inactive: -5.07%
Cc1cc(C)cc(OCC(=O)NC2=NCCS2)c1	inconclusive: 21.2 µM [inhibitor, single point]	
CN(CC(=O)Nc1ccc(Cl)c(C(F)(F)F)c1)C(=O)COC(=O)C1CC2CCCC(C1)C2=O (stereo not given)		inactive: -9.08%
CC(O)(c1ccccc1)c1nc(-c2ccncc2)cs1 (stereo not given)		inactive: -14.3%
c1ccc(Cc2nnc(Sc3ccccc3)c3ccccc23)cc1	inconclusive: 18.9 µM [inhibitor, partial curve]	
CC(=O)Nc1ccc(NCC(=O)c2ccccc2)cc1	inconclusive: 21.2 µM [inhibitor, single point]	
CCOC(=O)c1sc(-c2ccc(Cl)cc2Cl)nc1O	inconclusive: 33.6 µM [inhibitor, single point]	
O=C(O)c1cccc(N2C(=S)N=C(Nc3ccccc3)C23CCCCC3)c1		inactive: -1.25%
O=C(NCc1ccc(F)cc1)N1[C@H]2CC[C@@H]1C=C(c1ccc(F)cc1OCc1ccccc1)C2		inactive: -12.4%
C(#Cc1ccccc1)CN1CCOCC1		inactive: -4.92%
N#Cc1c(SCC(=O)Nc2cccc(F)c2)sc2c(O)cc(=O)[nH]c12	inconclusive: 33.6 µM [inhibitor, partial curve]	
Cn1ncc2c(Nc3ccc(O)cc3)nc(Cl)nc21	inconclusive: 37.7 µM [inhibitor, single point]	
COc1ccc(C2CC(c3ccc(Cl)cc3Cl)Nc3nc(N)nn32)cc1OC (stereo not given)		inconclusive: -30.2% [inhibitor]
Cc1cc(O)c(C(C[N+](=O)[O-])c2ccc(Cl)cc2Cl)c(=O)o1 (stereo not given)	inconclusive: 26.7 µM [inhibitor, partial curve]	
O=S(=O)(c1ccccc1F)N1CCN(Cc2cc3c(cc2O)OCO3)CC1	inconclusive: 26.7 µM [inhibitor, partial curve]	
C=CCOC(=O)C1=C(C)NC(SCC(=O)OCC)=C(C#N)C1c1ccc(O)c(OC)c1 (stereo not given)		inactive: -20.4%
O=C(CCNc1ccc(F)cc1)c1cccc([N+](=O)[O-])c1	inconclusive: 15 µM [inhibitor, partial curve]	
